PubChem BioAssay AID504774 – Drosophila RNAi Screening Center | 2011
Purpose: 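Knock-downs that shift viability of MMS-exposed cells relative to untreated ones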 (primary screen). Cell system: Drosophila Kc167 cells. Reagent: long dsRNA against Drosophila genes, about 0.25 µg dsRNA per well. Time to read-out: about 6 days: 3 days knock-down, then 3 days with or without MMS. Conditions: methyl methanesulphonate 0.004% (w/v) for 3 days after knock-down. Detection: 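Viability in wells given MMS, read as ATP luminescence, normalised by quantiles plate by plate and averaged across replicates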. Direction: mean viability with MMS and viability with MMS: higher = more surviving cells after MMS.
The deposit covers about 23,000 reagents; this is a random part of those that have a named target and a result. 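Values are quantile-normalised luminescence on an arbitrary scale; higher means more cells surviving MMS.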 Not all columns of the deposit are shown.

CG18558 (GeneID 33482) [DRSC00525] showed mean viability with MMS 3.32e6; viability with MMS, replicate 1 = 3.72e6.
Depletion of CG18558 (GeneID 33482) [DRSC21593] gave: mean viability with MMS 3.69e6; viability with MMS, replicate 1 = 4.15e6.
Against cher (GeneID 42066) [DRSC16924], the entry reads mean viability with MMS 3.73e6; viability with MMS, replicate 1 = 4.20e6.
Silencing of SH3PX1 (GeneID 39136) [DRSC11139] resulted in: mean viability with MMS 3.55e6; viability with MMS, replicate 1 = 3.93e6.
Knock-down of Atg17 (GeneID 40700) [DRSC12221] came out at: mean viability with MMS 3.63e6; viability with MMS, replicate 1 = 4.14e6.
Pcd (GeneID 43499) [DRSC16785] showed mean viability with MMS 3.53e6; viability with MMS, replicate 1 = 3.84e6.
Depletion of term (GeneID 47208) [DRSC21730] came out at: mean viability with MMS 3.50e6; viability with MMS, replicate 1 = 3.92e6.
Cp7Fc (GeneID 31786) [DRSC18035] showed mean viability with MMS 3.54e6; viability with MMS, replicate 1 = 3.99e6.

4 of these entries, reformatted.
| gene | amplicon | mean viability with MMS | viability with MMS, replicate 1 |
| --- | --- | --- | --- |
| SH3PX1 (GeneID 39136) | DRSC11139 | 3.55e6 | 3.93e6 |
| Atg17 (GeneID 40700) | DRSC12221 | 3.63e6 | 4.14e6 |
| Pcd (GeneID 43499) | DRSC16785 | 3.53e6 | 3.84e6 |
| term (GeneID 47208) | DRSC21730 | 3.50e6 | 3.92e6 |

Further records follow.
Srlp (GeneID 41533) [DRSC15890] showed mean viability with MMS 2.70e6; viability with MMS, replicate 1 = 3.63e6.
Xpc (GeneID 36697) [DRSC07654] showed mean viability with MMS 3.40e6; viability with MMS, replicate 1 = 4.02e6.
Noc3 (GeneID 40870) [DRSC12535] gave mean viability with MMS 3.41e6; viability with MMS, replicate 1 = 3.90e6.
Knock-down of Nach (GeneID 36864) [DRSC07478] resulted in: mean viability with MMS 3.50e6; viability with MMS, replicate 1 = 3.91e6.
Knock-down of mu2 (GeneID 38257) [DRSC08726] gave: mean viability with MMS 3.57e6; viability with MMS, replicate 1 = 4.00e6.
mu2 (GeneID 38257) [DRSC21534] gave mean viability with MMS 3.48e6; viability with MMS, replicate 1 = 4.01e6.
With knock-down of PolE2 (GeneID 38661) [DRSC09737], the record shows mean viability with MMS 3.64e6; viability with MMS, replicate 1 = 4.06e6.
Depletion of mRpL54 (GeneID 37389) [DRSC04545] resulted in: mean viability with MMS 3.59e6; viability with MMS, replicate 1 = 3.82e6.
CG9945 (GeneID 37329) [DRSC07347] scored mean viability with MMS 3.48e6; viability with MMS, replicate 1 = 3.89e6.
For brm (GeneID 39744) [DRSC11330] the deposit lists mean viability with MMS 3.33e6; viability with MMS, replicate 1 = 3.75e6.
With knock-down of CG6465 (GeneID 41274) [DRSC16046], the screen gave mean viability with MMS 3.56e6; viability with MMS, replicate 1 = 4.05e6.
After knock-down of ena (GeneID 37201) [DRSC05779] the results were mean viability with MMS 3.38e6; viability with MMS, replicate 1 = 3.80e6.
For ena (GeneID 37201) [DRSC07610], the values are mean viability with MMS 3.66e6; viability with MMS, replicate 1 = 4.18e6.
Depletion of CG30283 (GeneID 37454) [DRSC04071] resulted in: mean viability with MMS 3.64e6; viability with MMS, replicate 1 = 4.22e6.
For CG10494 (GeneID 37453) [DRSC04072], the entry reads mean viability with MMS 3.61e6; viability with MMS, replicate 1 = 3.98e6.
Silencing of TwdlY (GeneID 318093) [DRSC19153] came out at: mean viability with MMS 3.48e6; viability with MMS, replicate 1 = 3.97e6.
